# Experiments:
# [1] = general procedure: Fmoc solid-phase peptide synthesis; Rink Amide; DIC/HOBt (first Lys loading: DIC/HOAt or HBTU/HOBt/DIPEA); settings: whole synthesis, scale 150 mmol, salt conversion performed (salt not given)
# [2] = general procedure: Fmoc solid-phase peptide synthesis; Siber resin; DIC/HOBt (first Lys loading: DIC/HOAt or HBTU/HOBt/DIPEA); settings: whole synthesis, scale 54 mmol, salt conversion performed (salt not given)
# [3] = general procedure: Fmoc solid-phase peptide synthesis; Rink Amide-AM; DIC/HOBt (first Lys loading: DIC/HOAt or HBTU/HOBt/DIPEA); settings: whole synthesis, salt conversion performed (salt not given)
# [4] = general procedure: Fmoc solid-phase peptide synthesis; Rink Amide-MBHA; DIC/HOBt (first Lys loading: DIC/HOAt or HBTU/HOBt/DIPEA); settings: whole synthesis, salt conversion performed (salt not given)
# [5] = general procedure: Fmoc solid-phase peptide synthesis; Rink Amide resin, Rink Amide-MBHA resin, Rink Amide-AM resin, or Siber resin; DIC/HOBt (first Lys loading: DIC/HOAt or HBTU/HOBt/DIPEA); settings: salt conversion performed (salt not given); for final HPLC purity / step yield: purification step; for final HPLC purity / crude HPLC purity: 220 nm; for crude HPLC purity / crude yield: whole synthesis, scale of the general procedure 150-230 mmol
substance,measurement,setting,value
lixisenatide,crude mass,[1],251 g
same,crude mass,[2],241 g
same,crude mass,"[3]; scale 70 mmol, run 1",338.9 g
same,crude mass,"[3]; scale 70 mmol, run 2",341.3 g
same,crude mass,"[3]; scale 70 mmol, run 3",335.6 g
same,crude mass,[3]; scale 105 mmol,487 g
same,crude mass,"[3]; scale 230 mmol, run 2",370.6 g
same,crude mass,[4]; scale 32 mmol,156 g
same,crude mass,"[4]; scale 230 mmol, run 1",341 g
same,final HPLC purity,[5]; run 1,99.3%
same,final HPLC purity,[5]; run 2,99.1%
same,final HPLC purity,[5]; run 3,99.2%
same,final HPLC purity,[5]; run 4,99.3%
same,final HPLC purity,[5]; run 5,99.3%
same,final HPLC purity,[5]; run 6,99.2%
same,final HPLC purity,[5]; run 7,99.1%
same,final HPLC purity,[5]; run 8,99.2%
same,final HPLC purity,[5]; run 9,98.6%
same,step yield,[5]; run 1,28.8%
same,step yield,[5]; run 2,26.4%
same,step yield,[5]; run 3,27.4%
same,step yield,[5]; run 4,27.1%
same,step yield,[5]; run 5,28.1%
same,step yield,[5]; run 6,25.8%
same,step yield,[5]; run 7,26.6%
same,step yield,[5]; run 8,27.9%
same,step yield,[5]; run 9,15.4%
same,crude HPLC purity,[5]; run 1,69.1%
same,crude HPLC purity,[5]; run 2,66.6%
same,crude HPLC purity,[5]; run 3,68.4%
same,crude HPLC purity,[5]; run 4,67.9%
same,crude HPLC purity,[5]; run 5,67.1%
same,crude HPLC purity,[5]; run 6,61.8%
same,crude HPLC purity,[5]; run 7,59.6%
same,crude HPLC purity,[5]; run 8,68.9%
same,crude HPLC purity,[5]; run 9,44.5%
same,crude yield,[5]; run 1,99.4%
same,crude yield,[5]; run 2,101.2%
same,crude yield,[5]; run 3,98.9%
same,crude yield,[5]; run 4,102.6%
same,crude yield,[5]; run 5,100.6%
same,crude yield,[5]; run 6,99.6%
same,crude yield,[5]; run 7,100.8%
same,crude yield,[5]; run 8,97.6%
same,crude yield,[5]; run 9,96.8%

# From patent US20200277328 (published 2020)
